# Percent effect of library compounds

Chains of the proteins cited; added tags and fusions are not shown. Residues count along the entry.
UniProt Q4DA54, 1-478: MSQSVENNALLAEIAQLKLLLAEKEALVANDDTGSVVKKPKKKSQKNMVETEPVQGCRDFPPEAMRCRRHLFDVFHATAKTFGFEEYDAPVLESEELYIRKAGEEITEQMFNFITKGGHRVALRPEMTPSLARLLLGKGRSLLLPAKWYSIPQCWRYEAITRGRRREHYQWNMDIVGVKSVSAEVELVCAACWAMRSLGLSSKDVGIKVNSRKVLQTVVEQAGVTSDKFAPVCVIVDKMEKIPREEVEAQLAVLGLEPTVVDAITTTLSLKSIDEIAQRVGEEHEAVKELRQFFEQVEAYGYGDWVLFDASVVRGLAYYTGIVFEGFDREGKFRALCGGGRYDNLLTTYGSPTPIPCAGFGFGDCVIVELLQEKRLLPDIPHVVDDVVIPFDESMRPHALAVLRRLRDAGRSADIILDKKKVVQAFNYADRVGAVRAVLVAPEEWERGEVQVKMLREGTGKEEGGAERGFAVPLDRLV
UniProt Q8IDJ8, 1-583: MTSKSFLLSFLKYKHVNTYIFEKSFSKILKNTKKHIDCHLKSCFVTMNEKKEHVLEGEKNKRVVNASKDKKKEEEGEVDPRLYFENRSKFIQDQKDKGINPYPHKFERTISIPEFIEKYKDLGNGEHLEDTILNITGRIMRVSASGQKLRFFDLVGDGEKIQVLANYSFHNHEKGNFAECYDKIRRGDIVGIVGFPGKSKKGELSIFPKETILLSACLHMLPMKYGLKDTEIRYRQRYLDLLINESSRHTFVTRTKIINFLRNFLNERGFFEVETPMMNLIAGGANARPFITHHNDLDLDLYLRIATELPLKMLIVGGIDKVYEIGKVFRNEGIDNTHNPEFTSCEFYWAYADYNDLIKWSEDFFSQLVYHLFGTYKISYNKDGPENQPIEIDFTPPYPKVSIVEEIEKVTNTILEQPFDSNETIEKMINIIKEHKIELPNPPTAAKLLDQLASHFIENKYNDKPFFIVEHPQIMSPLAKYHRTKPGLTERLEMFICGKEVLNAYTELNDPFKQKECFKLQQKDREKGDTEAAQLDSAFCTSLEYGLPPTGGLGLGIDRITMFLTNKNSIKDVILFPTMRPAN

Source: ChEMBL document CHEMBL3988442, “University of Dundee, Small-Polar-MMV Screening Library” (2021).

Values are the deposited “Percent Effect”, in %.
How 0% and 100% were set is not recorded. Most values in the screen are low, and negative values occur.
The compounds are a random part of those screened.

TcHisRS: 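Enzyme assay of histidyl-tRNA synthetase; the read-out is not stated. Target: Histidine-tRNA ligase, Trypanosoma cruzi CL Brener (UniProt Q4DA54). Compounds at 30 µM. Direction is inferred from retests: higher values go with stronger inhibition. Of about 69,000 compounds tested this way, about 31 (0.045%) reached 50% or more in at least one test.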
PfKRS1: 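Lysine-tRNA ligase, Plasmodium falciparum 3D7 (UniProt Q8IDJ8). Enzyme assay of the cytosolic lysyl-tRNA synthetase in 384-well plates, read by luminescence. Compounds at 30 µM. Higher reads as stronger inhibition, judged from the few compounds that gave an IC50. About 69,000 compounds were tested under these conditions; 0.071% (about 49) showed 50% or more at least once.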

| Compound | TcHisRS | PfKRS1 |
|---|---|---|
| `Cc1cc(CS(=O)(=O)c2ccccc2)no1` | 2.041% | 0.3713% |
| `Cc1nc(N2CCCC2)nc2c1CCN(C(=O)N1CCCC1)CC2` | 12.02% | 1.349% |
| `Cc1n[nH]c(C2CN(CC(=O)NCc3cccs3)CCO2)n1` (stereo not shown) | 4.294% | 4.824% |
| `Cc1nc2c(c(NCC(c3cccnc3)N3CCOCC3)n1)CCNC2` (stereo not shown) | 2.424% | 3.693% |
| `Cc1c[nH]nc1C1CN(Cc2cnn(-c3ccccc3C(=O)O)c2)C1` | 7.28% | 1.851% |
| `Cc1ccccc1OCCC(=O)N(C)Cc1c(C)noc1C` | 3.333% | 2.153% |
| `CC(C)NC(=O)Cn1cc(OCc2ccc(F)cc2)c(=O)cc1CO` | 7.273% | 1.136% |
| `CC(C)c1noc(CS(=O)(=O)CC(=O)NCc2ccccc2)n1` | 4.046% | 3.919% |
| `COCCN1CCC(C(=O)N(C)Cc2c[nH]c3ccc(C)cc23)C1` (stereo not shown) | 15.29% | 4.814% |
| `CCN(CC)C(CNCc1cc(F)cc(F)c1)c1ccco1` (stereo not shown) | 5.844% | 2.997% |
| `O=c1cc(Cn2cncn2)nc2n1CCCN(CC1CCOCC1)C2` | 4.598% | -0.8898% |
| `CNS(=O)(=O)c1cc(C(=O)NC2COc3ccccc32)cc(C)c1C` (stereo not shown) | 1% | -1.179% |
| `CNc1cc2c(nn1)CCN(C(=O)c1cccc3c1OCCO3)C2` | 6.286% | 2.711% |
| `CC(C)c1nccn1-c1cccc(C2CCN(C)CC2)n1` | -0.5405% | 2.871% |
| `Cc1nc(CN2CCN(CCCc3nc4ccccc4o3)CC2)no1` | 4.255% | 8.165% |
| `CCN(C)CC(=O)N1CCC(c2cc(N3CCOCC3)nc(C)n2)CC1` | 3.061% | 8.477% |
| `OCCn1cc(CN2CCN(CCOCC(F)(F)F)CC2)cn1` | -0.3831% | -1.32% |
| `CN(C)C(=O)N1CCN(CCCOc2ccccc2)[C@H]2CS(=O)(=O)C[C@H]21` | 6.806% | 5.705% |
| `CN(Cc1ccccn1)C(C(=O)O)c1ccc2c(c1)OCO2` (stereo not shown) | 0.4975% | 2.049% |
| `CC(C)Nc1ncccc1C(=O)NCc1ccnn1C` | -1.093% | 1.425% |
| `COc1ccc2c(c1)OCC(CNC(=O)c1cnc(O)cn1)C2` (stereo not shown) | -1.212% | 8.665% |
| `Cc1ccc(C(=O)N2CCN(Cc3nc(C(C)C)no3)CC2)c(=O)[nH]1` | -0.3831% | -0.7474% |
| `O=C(CCc1ccccc1)NCC(O)c1c(F)cccc1F` (stereo not shown) | 2.632% | 2.835% |
| `Cc1cc(-c2cnc(N3CCNC(=O)C3)nc2-c2ccncc2)on1` | -1.498% | -0.9508% |
| `COc1cc(C(=O)N(C)Cc2cc(C(=O)O)c(C)o2)cc(OC)c1OC` | -0.5405% | 1.426% |
| `CCc1noc(C(C)N2CCN(C)CC2)n1` (stereo not shown) | 6.78% | 0.3286% |
| `COc1cc(N2CCC3(CCCN3Cc3ccn(C)n3)CC2)ncn1` | 9.091% | 4.49% |
| `CC(C)c1cc(NC(CCO)c2ccccc2)n2nccc2n1` (stereo not shown) | 9.091% | 2.091% |
| `Cc1ccc(S(=O)(=O)NC[C@H]2OC[C@@H](NCc3cccnc3)[C@@H]2O)cc1` | 1.087% | 0.454% |
| `CCC(SC)C(=O)N1CCC(n2ccnn2)CC1` (stereo not shown) | 0.578% | 2.138% |
| `COc1ccc(CNC[C@H]2COCc3nc4cccnc4n32)cc1` | 12.87% | 6.739% |
| `COc1ccc(-c2cc3nc([C@H](C)NC(=O)C4CC4)nn3cn2)cc1` | 4.478% | -0.53% |
| `CC(C)[C@@H]1CN(C(=O)C2(c3ccccc3)CCN(C)CC2)C[C@H]1C(=O)O` | 0% | -3.034% |
| `Cn1cnc2c1C(COCc1ccccc1)N(Cc1ccncc1)CC2` (stereo not shown) | 5.946% | 1.21% |
| `O=C(c1ccc[nH]1)N1CCc2ccc(S(=O)(=O)N3CCOCC3)cc2C1` | 8% | -0.1297% |
| `O=C(NCCCn1ccnc1)NCC(c1ccco1)N1CCCC1` (stereo not shown) | 9.038% | 1.016% |
| `CN(C)S(=O)(=O)N1CCC(c2ccncc2)CC1` | 3.802% | 2.705% |
| `Cc1ccc(C(=O)N(C)S(C)(=O)=O)cc1Cl` | 7.263% | 4.486% |
| `CC(C)n1nc(CNc2ncccn2)c2c1CN(C)CC2` | 3.226% | 3.523% |
| `CNC(=O)[C@H]1C[C@@H]2CN(C(=O)c3cscn3)C[C@@H]2N1S(C)(=O)=O` | 11.35% | 4.177% |
| `CCc1n[nH]c(C(=O)N2CCC3(CCCN(CCOC)C3=O)C2)c1C` (stereo not shown) | 12.06% | -1.797% |
| `O=C(CNc1cc(Br)ccc1Br)NC1CCS(=O)(=O)C1` (stereo not shown) | 1.571% | 4% |
| `Cn1nc(C(=O)N2CCC(Oc3ccc(C#N)cn3)CC2)ccc1=O` | 7.143% | 1.1% |
| `CN(C)c1ncc(C2Nc3ccccc3C3=NCCCN32)cn1` (stereo not shown) | 8.365% | 1.93% |
| `Cc1ccc(C)c(Oc2ccc(CNC(=O)C3CNC(=O)N3)cn2)c1` (stereo not shown) | 11.39% | 1.615% |
| `CC(CO)N1CCN(C(=O)OC(C)(C)C)CC1` (stereo not shown) | 2.02% | 2.166% |
| `COc1cc(N2C[C@H]3OCC[C@H]3[C@H](C(=O)NC3CC3)C2)ncn1` | 4.132% | 1.201% |
| `CC(C)(C)c1n[nH]cc1CNCC1CCN(CC(F)(F)F)C1` (stereo not shown) | 6.863% | 4.107% |
| `CN(C(=O)c1cnc(N2CCOCC2)nc1)C1Cc2ccccc2C1` | 3.571% | 3.828% |
| `CCc1nc(CN2CCN(C(=O)c3csnn3)CC2)cs1` | 7.289% | 1.641% |
| `O=C(Nc1cccnc1)[C@H]1C[C@@H]2CN(S(=O)(=O)C3CC3)C[C@H]1O2` | 6.863% | 2.732% |
| `CCc1ccc(CN2C[C@@H](C)C3(CCN(CC(=O)N(C)C)C3=O)C2)o1` (stereo partly shown) | 4.854% | 3.472% |
| `c1csc(-c2noc(CN3CCc4c(ncn4C4CC4)C3)n2)c1` | 4.04% | 2.589% |
| `O=C1[C@H]2CN(Cc3ccncc3)C[C@H]2CN1c1cncnc1` | 4.95% | 0.7489% |
| `CC(C)OCCC(=O)NCCC(=O)N1CCN(c2ccccn2)CC1` | 6.533% | 6.617% |
| `Cc1c(NCc2ccccc2C#N)cccc1S(=O)(=O)NC1CC1` | 5.844% | 3.447% |
| `CCn1ccnc1CN1CCCN(C(=O)COC2CCCC2)CC1` | 10.14% | -2.846% |
| `COC(=O)C1CN(Cc2nc(C(C)(C)C)cs2)C[C@@H](C)O1` (stereo partly shown) | 6.667% | 5.639% |
| `CCC(CC)c1cc(CNC(=O)N2CCC[C@@H]2CO)on1` | 0% | 0.1224% |
| `N[C@@H](C(=O)N1CCN(c2ccccc2Cl)C(=O)C1)c1ccccc1` | 14.45% | 8.164% |
| `Cc1cccc2c1OCCCC2NCc1nccn1Cc1ccccc1` (stereo not shown) | 4.444% | 0.06871% |
| `CS(=O)(=O)NCC(=O)N[C@H]1CN(CC2CC2)C[C@@H]1c1ccccc1` | 0% | 6.908% |
| `Cc1ncsc1CN(C)C(=O)CC1CCOc2ccccc21` (stereo not shown) | 0% | -0.7889% |
| `Cc1ccnc(NC(=O)c2ccc(C)o2)c1` | 1.19% | -3.178% |
| `CSc1ccc(C(C(=O)O)N2CCC(CO)CC2)cc1` (stereo not shown) | -1.754% | 2.633% |
| `Cc1ccc(-n2nnc(C(=O)Nc3cc(C)nn3C)c2C2CC2)cc1` | -0.3831% | -2.466% |
| `NC(=O)c1cnn2c1NCC(CNCCOc1ccccc1)C2` (stereo not shown) | 8.876% | 0.7985% |
| `Cn1c(=O)c2sccc2n(Cc2ccccc2)c1=O` | -0.4878% | 9.084% |
| `CCCNC(=O)c1cc(Br)c2c(c1)OCCO2` | 12.64% | 1.347% |
| `COc1ccc(CN(C)CC(=O)NC2(C)CCS(=O)(=O)C2)cc1F` (stereo not shown) | 1.132% | -0.4905% |
| `CCN(CC)S(=O)(=O)N1C[C@@H](c2ccccc2)[C@H]2[C@H]1CCCCCN2C` | 6.391% | 0.5797% |
| `COc1ccc(CC(=O)N2CCCCC2Cn2cc(C)cn2)cc1F` (stereo not shown) | 7.872% | -0.1084% |
| `CC(Cc1cccc(F)c1)C(=O)NS(=O)(=O)c1cnn(C)c1` (stereo not shown) | 7.407% | 0.947% |
| `Cc1nc(N2CCC(O)(c3ccccc3)CC2)c2c(C)nn(C)c2n1` | 6.438% | -1.351% |
| `COc1ccc(C(=O)N2C[C@@H](CN3CCOCC3)[C@@H](CO)C2)c(C)c1` | -0.8264% | 5.318% |
| `CCOCC(=O)N1Cc2nnn(C)c2C(COCc2ccccn2)C1` (stereo not shown) | 6.468% | 2.526% |
| `O=C(CSc1nnc[nH]1)NCc1sccc1Br` | 7.182% | -1.864% |
| `Cc1ncsc1CNc1cccc(OCCN2CCCC2)c1` | 9.677% | 6.838% |
| `CCn1ncnc1C(C)NC(=O)C1CCN(C(=O)COC)CC1` (stereo not shown) | 2.542% | 3.79% |
| `Cc1cc(C)nc(N2CC=C[C@H]2C(=O)NCc2ccc3c(c2)OCO3)n1` | 0.7692% | 6.828% |
| `CN1CCC(c2nnc3n2CCN(S(=O)(=O)c2ccccc2Cl)C3)CC1` | 9.579% | 0.2705% |

Once more, the final 5:

Compound,TcHisRS,PfKRS1
O=C(CSc1nnc[nH]1)NCc1sccc1Br,7.182%,-1.864%
Cc1ncsc1CNc1cccc(OCCN2CCCC2)c1,9.677%,6.838%
CCn1ncnc1C(C)NC(=O)C1CCN(C(=O)COC)CC1 (stereo not shown),2.542%,3.79%
Cc1cc(C)nc(N2CC=C[C@H]2C(=O)NCc2ccc3c(c2)OCO3)n1,0.7692%,6.828%
CN1CCC(c2nnc3n2CCN(S(=O)(=O)c2ccccc2Cl)C3)CC1,9.579%,0.2705%